Laboratory results published in paper PMC4426952.
These are yes or no findings as the source states them, for the method shown. Binding seen in cells or lysates may run through a third protein. Some results given as binding are weak or reduced against the parent protein; the word gives no strength.

Chains of the proteins cited; added tags and fusions are not shown. Residues count along the entry.
UniProt P40763: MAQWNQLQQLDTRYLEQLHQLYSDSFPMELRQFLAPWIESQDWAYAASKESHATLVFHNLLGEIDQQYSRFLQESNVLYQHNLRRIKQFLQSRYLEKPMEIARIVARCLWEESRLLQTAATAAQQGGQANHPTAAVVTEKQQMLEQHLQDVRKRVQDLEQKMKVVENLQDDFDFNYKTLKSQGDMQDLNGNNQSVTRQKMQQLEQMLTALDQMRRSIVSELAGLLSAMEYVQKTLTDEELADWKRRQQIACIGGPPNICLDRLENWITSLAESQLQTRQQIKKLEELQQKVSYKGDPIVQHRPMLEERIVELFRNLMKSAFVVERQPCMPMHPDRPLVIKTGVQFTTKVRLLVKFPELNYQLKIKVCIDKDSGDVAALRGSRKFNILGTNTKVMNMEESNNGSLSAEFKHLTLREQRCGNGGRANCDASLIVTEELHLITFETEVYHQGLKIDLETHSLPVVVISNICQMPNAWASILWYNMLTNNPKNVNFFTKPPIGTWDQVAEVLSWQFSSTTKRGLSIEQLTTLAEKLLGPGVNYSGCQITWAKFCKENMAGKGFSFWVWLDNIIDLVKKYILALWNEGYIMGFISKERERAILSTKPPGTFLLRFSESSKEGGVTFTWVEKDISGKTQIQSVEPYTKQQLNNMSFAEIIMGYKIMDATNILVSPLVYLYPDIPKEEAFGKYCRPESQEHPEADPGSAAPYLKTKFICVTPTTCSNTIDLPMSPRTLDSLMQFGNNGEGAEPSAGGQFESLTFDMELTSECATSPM
UniProt P28799, residues 18-593: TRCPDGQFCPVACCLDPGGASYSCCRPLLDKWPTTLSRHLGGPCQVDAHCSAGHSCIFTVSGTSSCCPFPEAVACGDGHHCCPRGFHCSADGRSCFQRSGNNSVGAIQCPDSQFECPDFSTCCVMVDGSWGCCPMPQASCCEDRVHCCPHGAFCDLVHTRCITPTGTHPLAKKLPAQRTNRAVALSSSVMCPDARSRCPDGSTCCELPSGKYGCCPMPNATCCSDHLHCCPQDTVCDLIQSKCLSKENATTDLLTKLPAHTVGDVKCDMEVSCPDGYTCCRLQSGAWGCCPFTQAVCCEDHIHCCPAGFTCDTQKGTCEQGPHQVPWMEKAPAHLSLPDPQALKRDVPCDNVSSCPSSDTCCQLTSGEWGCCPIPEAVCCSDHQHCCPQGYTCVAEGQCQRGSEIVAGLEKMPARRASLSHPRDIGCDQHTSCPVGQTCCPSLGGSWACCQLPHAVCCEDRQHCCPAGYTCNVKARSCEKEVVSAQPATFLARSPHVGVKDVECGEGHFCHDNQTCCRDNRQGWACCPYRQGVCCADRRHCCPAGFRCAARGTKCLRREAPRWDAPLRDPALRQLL

What was measured:
[1] = target: signal transducer and activator of transcription 3 (STAT3) (human (endogenous in MDA-MB-468, SUM159PT, SK-BR-3)) (UniProt P40763); assay: co-IP; endogenous STAT3 precipitated with anti-STAT3 (or non-specific IgG) from MDA-MB-468 and SUM159PT lysates, immunoblot for GRN; lysis buffer 50 mM Tris pH 7.5, 150 mM NaCl, 0.5% NP40, 4 °C
[2] = target: signal transducer and activator of transcription 3 (STAT3) (human (endogenous in MDA-MB-468, SUM159PT, SK-BR-3)) (UniProt P40763); assay: co-IP; endogenous STAT3 precipitated with anti-STAT3 (or non-specific IgG) from SK-BR-3 lysates (no constitutively active PY-STAT3), without cytokine stimulation, immunoblot for GRN
[3] = target: human GRN, transiently expressed (Human GRN/pcDNA3.1v5HIS-TOPO) (human) (UniProt P28799); assay: co-IP; reciprocal co-immunoprecipitation in TNBC cells transiently expressing GRN

Substance | binding [1] | binding [2] | binding [3]
granulin (GRN) (from UniProt P28799 18-593) | binds | binds | 
signal transducer and activator of transcription 3 (STAT3) (from UniProt P40763 1-770) |  |  | binds
